The exact form of at least one protein or probe is not confirmed.
Tested on: tau381 (1N3R as printed) (human)
Experiment: capillary electrophoresis of equilibrium mixtures (NECEEM)
Conditions: 0.1 M PBS pH 7.0, 5 uM aptamer for immobilization, 30 min tau381 incubation, DPV -0.6 to 0.2 V; EIS in 10 mM [Fe(CN)6]3-/4-; temperature not stated; commercial protein; single-stranded DNA

Chains of the proteins cited; added tags and fusions are not shown. A line that says so, or that is headed by a name, gives the form on record, which may keep a tag or linker.
tau381 (1N3R as printed) (human), one chain, as listed by the source: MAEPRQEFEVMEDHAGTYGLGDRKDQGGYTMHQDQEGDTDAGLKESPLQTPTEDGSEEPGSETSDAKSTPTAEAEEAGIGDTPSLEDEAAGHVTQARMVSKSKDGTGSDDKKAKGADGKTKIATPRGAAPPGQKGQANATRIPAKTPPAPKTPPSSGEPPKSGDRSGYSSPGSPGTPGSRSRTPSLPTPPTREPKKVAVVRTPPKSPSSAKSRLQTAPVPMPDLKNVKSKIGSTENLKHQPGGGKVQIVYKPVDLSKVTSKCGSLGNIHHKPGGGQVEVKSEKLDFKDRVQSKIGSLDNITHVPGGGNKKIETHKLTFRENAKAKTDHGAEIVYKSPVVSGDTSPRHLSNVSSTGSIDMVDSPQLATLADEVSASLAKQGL

## GCGGAGCGTGGCAGG [tau381 aptamer (ref 9)]
  Kd: 190 nM
